Where “and” joins values, the source holds several entries; their conditions need not be identical. Equal values may be shown once. Some of the results follow. Shown are side measurements of this screen, not its main read-out; they come without a call. The list favours compounds with an active or inconclusive main result. Words in brackets tell the shape of the fitted curve; partial curves, single points and poor fits give uncertain potencies.
Experiment: qHTS Assay to Find Inhibitors of Chronic Active B-Cell Receptor Signaling
Conditions: ABC-DLBCL IkBa-CBG/CBR reporter, luminescence ratio (green luciferase fused to IkBa over red control in TMD8 lymphoma cells), 4 h
Summary of the method: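 TMD8 human ABC-DLBCL cells with doxycycline-inducible IκBα–green luciferase fusion and unfused red luciferase, in 0.5% FBS medium; compounds up to 46 uM, 4 h at 37C. Green/red luminescence ratio, filter-overlap corrected, fitted to concentration-response curves.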

[1] = measured here: CBR red luminescence, cell number
[2] = measured here: IkBa-CBG green luminescence

| SMILES | AC50 [1] | AC50 [2] |
| --- | --- | --- |
| O=C1Nc2ccccc2C(O)(C(=O)NCc2ccc3c(c2)OCO3)N1c1ccc(Cl)c(Cl)c1 (centres undefined) | 5.62 µM [falling, full curve] |  |
| Cc1cc(C)c2ccc3c(C)c(C)n(C)c3c2n1 | 6.31 µM [falling, single point] |  |
| Nc1nnc(/C=C/c2ccccc2)s1 | 35.5 µM [falling, partial curve, poor fit] |  |
| COc1ccc2nc(C3CCCCC3)nc(C3CCCCC3)c2c1 | 1.84 µM [rising, full curve] |  |
| CCCc1cc(C(=O)OC)c(NC(=O)CCCC(=O)O)s1 | 35.5 µM [rising, single point] |  |
| COc1ccccc1-c1nc(SC)n[nH]1 | 31.6 µM [falling, single point] |  |
| COc1ccccc1N1CCN(C2CCCN(C(=O)c3cc(C)oc3C)C2)CC1 (centres undefined) | 10 µM [falling, partial curve, poor fit] |  |
| CC(C)n1cnc2c(Nc3ccc(C(=O)O)cc3)nc(Cl)nc21 | 6.31 µM [falling, partial curve] |  |
| CCC1CCCCN1C(=O)CSc1nnc(-c2ccco2)o1 (centres undefined) | 10.3 µM [rising, partial curve, poor fit] |  |
| CCOC(=O)[C@H]1[C@H]2COc3cc(OC)ccc3[C@@H]2N2C(=O)c3cc(C)ccc3NC(=O)[C@@]12C | 0.82 µM [falling, full curve, poor fit] |  |
| Cc1ccsc1S(=O)(=O)N1CCC(CO)(CC2CCCCO2)CC1 (centres undefined) | 35.5 µM [falling, single point] |  |
| O=C(Cc1ccc(O)cc1)NCCNC(=S)NCc1ccccc1 | 3.98 µM [rising, partial curve, poor fit] |  |
| Cc1cccc2c1-c1sc(C(=O)NCCCN3CCCC(C)C3)cc1CO2 (centres undefined) | 35.5 µM [falling, single point] |  |
| Cc1ccc(Oc2ccc(S(=O)(=O)Nc3ccc(C(=O)O)cc3)cc2)cc1 | 29.1 µM [falling, single point] |  |
| COc1ccc(NC(=O)COC(=O)c2ccc(-n3cnnn3)cc2)cc1Cl | 25.9 µM [rising, single point] |  |
| Cc1nc2ccc(S(=O)(=O)Nc3cccc(-c4nc5cccnc5s4)c3)cc2s1 | 32.6 µM [falling, single point] | 4.61 µM [falling, full curve] |
| Nc1cc(C(=O)O)ccc1Nc1ccc(F)c(F)c1 | 3.26 µM [falling, single point] |  |
| COc1ccc(-c2csc(N3CCC(C(N)=O)CC3)n2)cc1 | 4.61 µM [rising, partial curve] |  |
| CN(c1ccc(OC(=O)CN2C(=O)NC3(CCCC3)C2=O)cc1)S(=O)(=O)c1ccccc1 | 10.3 µM [rising, partial curve] |  |
| COc1ccc(NC(=O)CSc2nnc(NC(=O)NC3CCCCC3)s2)cc1OC | 3.98 µM [falling, full curve] |  |
| CCOC(=O)/C(C#N)=C/c1c(N2CCN(c3ccccc3)CC2)nc2ccccn2c1=O | 0.501 µM [rising, full curve, poor fit] |  |

| SMILES | AC50 [1] | AC50 [2] |
| --- | --- | --- |
| COc1ccc(Cl)cc1C(=O)OCC(=O)N(C)CC(=O)Nc1ccc(F)cc1 | 20.6 µM [falling, single point] |  |
| CCCCCCCCCCC[N+](C)(C)CC/C=C1/c2ccccc2Sc2ccc(Cl)cc21 | 3.16 µM [falling, partial curve] |  |
| Cn1cccc1/C=N/NC(=O)CSc1nc2ccccc2n1C | 10 µM [rising, partial curve, poor fit] |  |
| CCOC(=O)c1cnc2c(ccc3ccccc32)c1NCCCN(C)C | 15.8 µM [falling, single point] |  |
| COc1ccc(C2c3ccc(O)cc3Oc3ncn4nc(-c5ccco5)nc4c32)cc1OC (centres undefined) | 7.94 µM [falling, partial curve] |  |
| CCOC(=O)C(Sc1ncnc2c1sc1nc(N3CCOCC3)c3c(c12)CCCC3)c1ccccc1 (centres undefined) | 12.6 µM [rising, single point] |  |
| CCOC(=O)N1CCN(c2c(NCCCN3CCCCCC3)c(=O)c2=O)CC1 | 11.6 µM [falling, single point] |  |
| COc1cccc(Cn2c(NCc3cccnc3)nc3c2c(=O)n(C)c(=O)n3C)c1 | 0.282 µM [falling, full curve, poor fit] |  |
| O=C1C(=O)N(CCN2CCOCC2)C(c2ccc([N+](=O)[O-])cc2)/C1=C(/O)c1ccc2c(c1)OCO2 (centres undefined) | 0.355 µM [rising, full curve, poor fit] |  |
| COC(=O)c1cc(NC(=O)CSc2nncn2C)cc(C(=O)OC)c1 | 3.66 µM [falling, single point] |  |
| Cc1cc(Cl)cc2c1NC(=O)[C@]21[C@@H]2C(=O)N(Cc3ccccc3)C(=O)[C@@H]2[C@@H]2CCCN21 | 35.5 µM [falling, single point] and 20.6 µM [falling, partial curve] |  |
| Cc1cc(C)c(S(=O)(=O)N2CCN(c3ccc([N+](=O)[O-])c(-n4nc(C)cc4C)c3)CC2)c(C)c1 | 3.98 µM [falling, partial curve, poor fit] |  |
| O=C1Nc2ccc(Br)cc2C1(O)Cc1ccccn1 (centres undefined) | 14.6 µM [rising, partial curve, poor fit] |  |
| CCC(Cc1ccccc1)NC(=O)CN1C(=O)CSc2ncccc21 (centres undefined) | 5.17 µM [falling, partial curve, poor fit] |  |
| CCC1SC(=NC(=O)c2ccc(Cl)c(Cl)c2)NC1=O (centres undefined) | 2.31 µM [rising, partial curve, poor fit] |  |
| O=C(O)c1ccc(N/N=C/c2ccc3ncccc3c2)cc1 | 0.0517 µM [falling, full curve] |  |
| O=C(Nc1cccnc1)c1cc(-c2ccccc2)on1 | 5.8 µM [falling, partial curve] |  |
| O=[N+]([O-])c1ccc(O)c(Nc2ncnc3ccc(Br)cc23)c1 | 25.1 µM [rising, single point] |  |
| CCc1cc(=O)oc2c3c(cc(OCC(=O)NCc4cccnc4)c12)OC(C)(C)CC3 | 35.5 µM [falling, single point] |  |
| Cc1cc(C)c(C)c(S(=O)(=O)N[C@@H](C)C(=O)OCC(=O)NC2CCCC(C)C2C)c1C (some centres undefined) | 29.1 µM [rising, single point] |  |
| CCC1=C(OC(=O)N(CC)CC)N2C(=O)OC(=NCCc3c[nH]c4ccccc34)[C@]2(Cc2ccccc2)[C@H]2C1=CC[C@H]1C(=O)N(CC)C(=O)[C@H]12 | 12.6 µM [falling, single point] |  |

Among those listed so far, 2 contain fluorine.

| SMILES | AC50 [1] | AC50 [2] |
| --- | --- | --- |
| Nc1cc(C(=O)O)ccc1Nc1ccc(F)c(F)c1 | 3.26 µM [falling, single point] |  |
| COc1ccc(Cl)cc1C(=O)OCC(=O)N(C)CC(=O)Nc1ccc(F)cc1 | 20.6 µM [falling, single point] |  |

Shown in CSV form: entries from further up
SMILES,AC50 [1],AC50 [2]
COc1ccc(C2c3ccc(O)cc3Oc3ncn4nc(-c5ccco5)nc4c32)cc1OC (centres undefined),"7.94 µM [falling, partial curve]",
CCOC(=O)C(Sc1ncnc2c1sc1nc(N3CCOCC3)c3c(c12)CCCC3)c1ccccc1 (centres undefined),"12.6 µM [rising, single point]",

(more compounds)

| SMILES | AC50 [1] | AC50 [2] |
| --- | --- | --- |
| Cc1ccc(Cl)cc1N1CCN(C(=O)CNC(=O)c2ccc(Br)o2)CC1 | 7.31 µM [falling, partial curve] |  |
| CC/C(=N\NC(=O)c1ccc(-c2ccccc2)cc1)C12CC3CC(CC(C3)C1)C2 | 8.2 µM [falling, partial curve, poor fit] |  |
| Cn1c(SCC(=O)Nc2sccc2C(N)=O)nc2ccccc2c1=O | 0.82 µM [falling, full curve, poor fit] |  |
| O=[N+]([O-])c1ccc(N=Nc2ccc(O)cc2O)cc1 | 0.326 µM [rising, full curve, poor fit] |  |
| COc1c(Br)cc([N+](=O)[O-])c(OC)c1C(=O)NC(=O)Nc1cc(Cl)cc(Cl)c1 | 14.1 µM [falling, single point] |  |
| CCC(C)NC(=O)COc1ccc(Br)c(C)c1 (centres undefined) | 32.6 µM [falling, single point] |  |
| O=C(COC(=O)c1cnccn1)c1ccccc1 | 0.00517 µM [falling, full curve, poor fit] |  |
| Cc1cccc(C(=O)Nc2cccc(S(=O)(=O)NCc3ccco3)c2)c1 | 0.366 µM [rising, full curve] |  |
| O=C(Nc1nc2ccccc2[nH]1)c1cccc(S(=O)(=O)N2CCOCC2)c1 | 2.91 µM [falling, single point] |  |
| CC1(C)CC(/C=C/c2ccccc2)=Nc2ccccc2N1 | 35.5 µM [falling, single point] |  |
| COc1ccccc1-c1noc(CSc2nc(N)cc(=O)[nH]2)n1 | 20 µM [rising, partial curve] | 20 µM [falling, partial curve] |
| CN(C)S(=O)(=O)c1cccc(NC(=S)NCc2ccc3c(c2)OCO3)c1 | 35.5 µM [falling, single point] |  |
| Cc1cccn2c(=O)c(C(=O)NCCc3ccccc3)cnc12 | 14.1 µM [falling, partial curve] |  |
| O=C(CCn1nnc(-c2cccs2)n1)N1CCc2ccccc2C1 | 29.1 µM [rising, single point] |  |
| Cc1c(Br)c([N+](=O)[O-])nn1C(C)C(=O)N1CCc2ccccc2C1 (centres undefined) | 8.91 µM [rising, partial curve, poor fit] |  |
| C#CCNC(=O)C1=C[C@@H](c2coc3ccccc3c2=O)[C@H](CCCO)[C@@H](OCC)O1 | 2.82 µM [rising, single point] |  |
| COc1cccc(CC(=O)N2CCCC(CCC(=O)N3CCN(c4ccccn4)CC3)C2)c1 (centres undefined) | 35.5 µM [falling, single point] |  |
| Cc1cccc(CN2C[C@]34CC[C@@H](C[C@@H]3S2(=O)=O)O4)c1 | 1.58 µM [rising, full curve, poor fit] |  |
| Cc1ccc(S(=O)(=O)/N=C2\C=C(Nc3ccc(O)cc3)C(=O)c3ccccc32)cc1 | 1.84 µM [falling, partial curve] |  |
| CCOC(=O)C1CCCN(C(=O)c2sc3nc4n(c(=O)c3c2C)CCC4)C1 (centres undefined) | 4.11 µM [rising, single point] |  |
